Read-outs that look alike come from different tables or passages of the source. Results are given in words; binding and its absence hold for the method and conditions named. In cells and extracts the contact can be indirect. Some binding calls cover weakened binding; strength is not graded here.
Tests used:
Experiment in all cases: co-IP
[1] = biological target: EGFR (human (endogenous in A549)) (UniProt P00533)
[2] = biological target: HA-tagged Grb7 (growth factor receptor bound protein-7) (UniProt Q14451)
[3] = biological target: HA-tagged Grb7 (growth factor receptor bound protein-7) (UniProt Q14451); remark: listed apart in the source
[4] = biological target: HA-tagged Grb7 (growth factor receptor bound protein-7) (UniProt Q14451); remark: listed apart in the source

Sequences of proteins named here, by UniProt entry; tags and fusion partners are left off. Residues count along the entry.
UniProt Q14451, whole entry: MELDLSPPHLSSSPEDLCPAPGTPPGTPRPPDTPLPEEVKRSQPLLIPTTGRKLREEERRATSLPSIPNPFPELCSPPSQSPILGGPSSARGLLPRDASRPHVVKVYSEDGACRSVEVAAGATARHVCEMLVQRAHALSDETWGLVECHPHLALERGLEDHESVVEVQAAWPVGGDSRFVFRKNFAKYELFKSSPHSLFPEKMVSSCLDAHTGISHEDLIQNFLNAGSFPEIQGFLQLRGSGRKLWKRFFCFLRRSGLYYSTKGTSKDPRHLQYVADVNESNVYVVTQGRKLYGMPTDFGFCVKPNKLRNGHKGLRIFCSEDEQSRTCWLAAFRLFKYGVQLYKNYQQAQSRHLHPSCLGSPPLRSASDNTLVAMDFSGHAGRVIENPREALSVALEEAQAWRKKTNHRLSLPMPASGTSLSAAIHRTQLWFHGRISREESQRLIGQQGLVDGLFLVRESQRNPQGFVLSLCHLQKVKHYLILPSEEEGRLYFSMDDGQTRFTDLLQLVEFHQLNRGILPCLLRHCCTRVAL
UniProt P54764, 20-986: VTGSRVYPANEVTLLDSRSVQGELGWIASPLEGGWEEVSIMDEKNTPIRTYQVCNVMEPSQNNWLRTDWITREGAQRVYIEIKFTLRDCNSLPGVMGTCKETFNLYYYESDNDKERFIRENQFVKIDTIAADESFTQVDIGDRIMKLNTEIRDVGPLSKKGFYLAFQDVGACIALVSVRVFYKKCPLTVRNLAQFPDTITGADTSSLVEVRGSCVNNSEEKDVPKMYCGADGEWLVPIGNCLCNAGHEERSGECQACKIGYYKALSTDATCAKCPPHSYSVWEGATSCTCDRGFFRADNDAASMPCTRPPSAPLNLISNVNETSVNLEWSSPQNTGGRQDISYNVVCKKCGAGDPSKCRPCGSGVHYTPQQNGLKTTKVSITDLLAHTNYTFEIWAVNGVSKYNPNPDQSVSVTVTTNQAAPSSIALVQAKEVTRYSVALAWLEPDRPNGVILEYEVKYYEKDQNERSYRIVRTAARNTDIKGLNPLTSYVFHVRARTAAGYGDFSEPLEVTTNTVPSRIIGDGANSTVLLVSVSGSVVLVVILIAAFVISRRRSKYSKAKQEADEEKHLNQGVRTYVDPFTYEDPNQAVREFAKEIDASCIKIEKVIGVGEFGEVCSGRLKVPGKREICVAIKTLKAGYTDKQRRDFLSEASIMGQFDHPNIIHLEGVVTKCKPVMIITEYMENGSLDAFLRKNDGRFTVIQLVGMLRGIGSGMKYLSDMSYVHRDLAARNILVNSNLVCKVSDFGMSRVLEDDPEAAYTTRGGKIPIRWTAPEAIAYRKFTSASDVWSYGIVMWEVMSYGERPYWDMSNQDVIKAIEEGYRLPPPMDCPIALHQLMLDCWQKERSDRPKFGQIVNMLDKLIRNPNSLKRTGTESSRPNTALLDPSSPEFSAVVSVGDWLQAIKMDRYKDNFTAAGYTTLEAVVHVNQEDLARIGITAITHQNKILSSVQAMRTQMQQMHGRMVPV
UniProt P40763, whole entry: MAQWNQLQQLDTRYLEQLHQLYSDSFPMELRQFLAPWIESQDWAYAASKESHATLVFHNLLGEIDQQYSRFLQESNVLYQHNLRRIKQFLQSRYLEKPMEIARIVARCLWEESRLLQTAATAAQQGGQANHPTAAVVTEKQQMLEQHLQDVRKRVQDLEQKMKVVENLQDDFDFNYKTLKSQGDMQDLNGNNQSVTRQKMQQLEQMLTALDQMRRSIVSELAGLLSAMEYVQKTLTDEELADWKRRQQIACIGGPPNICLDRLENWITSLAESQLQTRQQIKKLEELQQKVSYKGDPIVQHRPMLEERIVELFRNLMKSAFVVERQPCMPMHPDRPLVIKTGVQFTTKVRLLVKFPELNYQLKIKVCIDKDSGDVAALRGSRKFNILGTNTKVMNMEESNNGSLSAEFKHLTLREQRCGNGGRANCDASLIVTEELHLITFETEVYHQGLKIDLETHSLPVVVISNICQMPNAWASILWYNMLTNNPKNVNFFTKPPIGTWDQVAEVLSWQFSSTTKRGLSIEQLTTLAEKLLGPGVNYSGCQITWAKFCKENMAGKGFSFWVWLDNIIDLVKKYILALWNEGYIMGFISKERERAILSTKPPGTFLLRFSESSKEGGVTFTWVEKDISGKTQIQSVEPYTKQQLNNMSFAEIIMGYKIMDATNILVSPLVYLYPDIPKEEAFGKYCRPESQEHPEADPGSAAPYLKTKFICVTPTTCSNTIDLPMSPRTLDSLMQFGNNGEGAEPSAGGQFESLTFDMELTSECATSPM

Substance | binding [1] | binding [2] | binding [3] | binding [4]
EphA4 (from UniProt P54764 20-986) (receptor) | binds |  |  | 
STAT3 (from UniProt P40763 1-770) |  | binds | binds | binds
Flag-tagged STAT3 (from UniProt P40763 1-770) |  |  | binds | 
